Laboratory results taken from paper PMC7835061.
Results are given in words; binding and its absence hold for the method and conditions named. In cells and extracts the contact can be indirect. Some results given as binding are weak or reduced against the parent protein; the word gives no strength.

Molecular target: T1, Sparc/osteonectin, cwcv and kazal-like domains proteoglycan 1 (SPOCK1) (human (endogenous in MCF7 and SKBR3)) (UniProt Q08629)
T1 sequence: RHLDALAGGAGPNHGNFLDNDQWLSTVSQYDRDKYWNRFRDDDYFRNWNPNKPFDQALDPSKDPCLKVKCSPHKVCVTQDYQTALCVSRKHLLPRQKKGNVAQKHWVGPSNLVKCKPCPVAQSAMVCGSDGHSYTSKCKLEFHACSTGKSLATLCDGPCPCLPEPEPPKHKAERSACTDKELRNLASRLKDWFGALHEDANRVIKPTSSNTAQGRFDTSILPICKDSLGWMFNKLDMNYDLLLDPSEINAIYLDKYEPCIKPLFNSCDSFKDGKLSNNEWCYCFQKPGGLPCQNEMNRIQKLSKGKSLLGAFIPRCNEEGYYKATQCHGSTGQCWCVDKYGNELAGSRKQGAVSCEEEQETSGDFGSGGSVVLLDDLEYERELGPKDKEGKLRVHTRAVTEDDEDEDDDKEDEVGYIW
Assay: co-IP; endogenous proteins in MCF7 and SKBR3 cell lysates; primary antibody overnight at 4° C, Protein A/G PLUS-Agarose beads, control IgG preclearing, washed 3 times with lysis buffer, western blot

B1: SIX homeobox 1 (SIX1) (protein, UniProt Q15475 1-284)
chain: MSMLPSFGFTQEQVACVCEVLQQGGNLERLGRFLWSLPACDHLHKNESVLKAKAVVAFHRGNFRELYKILESHQFSPHNHPKLQQLWLKAHYVEAEKLRGRPLGAVGKYRVRRKFPLPRTIWDGEETSYCFKEKSRGVLREWYAHNPYPSPREKRELAEATGLTTTQVSNWFKNRRQRDRAAEAKERENTENNNSSSNKQNQLSPLEGGKPLMSSSEEEFSPPQSPDQNSVLLLQGNMGHARSSNYSLPGLTASQPSHGLQTHQHQLQDSLLGPLTSSLVDLGS
binding: binds
